# Experimental data published in patent US7320804B2, “Cough depressant composition containing iron for angiotensin-converting enzyme inhibitor inducing cough” (Samsung Life Public Welfare Foundation Samsund Medical …, priority 2000, dated 2008).
# Like-named read-outs stand apart in the source and are kept apart here.
# Details: for Ferritin concentration: pretreatment 68.15 ± 32.86
structure (smiles),measurement,setting,value
"O=S(=O)([O-])[O-].[Fe+2] [Iron, ferrous sulphate]","Difference in hemoglobin, hematocrit, iron concentration, TIBC and ferritin concentration between iron taking group and placebo taking group (in words)",blood samples before and after treatment,no significant difference
same,Hemoglobin,"posttreatment, after 4 weeks of iron, pretreatment 13.43 ± 0.81",13.63 ± 0.60 mg/dL
same,Hematocrit,"posttreatment, after 4 weeks of iron, pretreatment 39.58 ± 2.65",40.78 ± 2.51%
same,Ferritin concentration,"posttreatment, after 4 weeks of iron",86.03 ± 25.78 mg/dL
same,Ferritin concentration,"posttreatment, after 4 weeks of iron, listed as iron",86.03 ± 25.78 mg/dL
same,Iron concentration,"posttreatment, after 4 weeks of iron, pretreatment 74.75 ± 10.53",83.75 ± 16.07 mg/dL
same,TIBC (total iron binding capacity),"posttreatment, after 4 weeks of iron, pretreatment 312.5 ± 28.1",320.3 ± 11.9 mg/dL
